Experimental data published in doi:10.1101/2020.02.03.932962.
These are yes or no findings as the source states them, for the method shown. For some assays here: Binding seen in cells or lysates may run through a third protein. Some results given as binding are weak or reduced against the parent protein; the word gives no strength. Sequences can lack the tags named with a protein.

Protein sequences, listed by entry. Tags and fused reporters are not part of them.
UniProt Q15672, whole entry: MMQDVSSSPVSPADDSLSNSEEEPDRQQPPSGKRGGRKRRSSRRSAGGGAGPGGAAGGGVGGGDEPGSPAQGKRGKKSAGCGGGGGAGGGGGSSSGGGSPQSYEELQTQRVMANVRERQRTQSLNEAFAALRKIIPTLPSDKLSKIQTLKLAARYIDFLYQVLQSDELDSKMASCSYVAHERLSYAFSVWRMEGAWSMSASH
UniProt O95863, whole entry: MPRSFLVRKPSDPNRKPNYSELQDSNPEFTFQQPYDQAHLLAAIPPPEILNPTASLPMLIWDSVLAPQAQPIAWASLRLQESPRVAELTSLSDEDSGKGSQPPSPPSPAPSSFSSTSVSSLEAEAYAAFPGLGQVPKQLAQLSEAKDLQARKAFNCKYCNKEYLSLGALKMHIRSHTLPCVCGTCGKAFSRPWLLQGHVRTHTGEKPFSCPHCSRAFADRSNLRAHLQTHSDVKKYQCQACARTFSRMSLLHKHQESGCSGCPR

T1: Myc-E47 (UniProt P15923)
T1 sequence: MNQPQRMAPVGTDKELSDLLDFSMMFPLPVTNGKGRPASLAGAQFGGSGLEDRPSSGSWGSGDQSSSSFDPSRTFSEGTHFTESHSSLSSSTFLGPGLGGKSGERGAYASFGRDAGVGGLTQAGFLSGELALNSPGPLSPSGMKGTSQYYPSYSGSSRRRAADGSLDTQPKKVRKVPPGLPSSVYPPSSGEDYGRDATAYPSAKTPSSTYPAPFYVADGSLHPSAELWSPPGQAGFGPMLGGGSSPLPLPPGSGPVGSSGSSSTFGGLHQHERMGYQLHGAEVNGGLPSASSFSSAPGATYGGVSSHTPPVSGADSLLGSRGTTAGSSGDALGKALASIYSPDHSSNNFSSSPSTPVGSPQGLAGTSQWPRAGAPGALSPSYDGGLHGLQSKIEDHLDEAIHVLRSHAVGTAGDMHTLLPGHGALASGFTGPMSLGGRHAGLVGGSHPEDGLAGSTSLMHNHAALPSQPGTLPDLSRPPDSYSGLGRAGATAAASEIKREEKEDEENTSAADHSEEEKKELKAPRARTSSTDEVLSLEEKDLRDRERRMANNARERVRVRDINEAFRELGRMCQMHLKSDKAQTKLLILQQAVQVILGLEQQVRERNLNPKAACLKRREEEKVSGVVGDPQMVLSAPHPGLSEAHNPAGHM


How the values were obtained:
Myc-E47 = molecular target: T1, Myc-E47; assay: co-IP
HA-Twist = HA-Twist (UniProt Q15672); assay: native gel or EMSA
Flag-Twist [1] = molecular target: Flag-Twist (UniProt Q15672); assay: native gel or EMSA
Flag-Twist [2] = molecular target: Flag-Twist (UniProt Q15672); assay: pull-down

Row | binding (Myc-E47) | binding (HA-Twist) | binding (Flag-Twist [1]) | binding (Flag-Twist [2]) | Molecule
1 | binds | – | – | – | HA-Twist (from UniProt Q15672 1-202)
2 | no binding | – | – | – | Snail-C-Flag (from UniProt O95863 1-264)
3 | – | binds | binds | binds | Myc-E47 (protein, UniProt P15923-2 1-651) MNQPQRMAPVGTDKELSDLLDFSMMFPLPVTNGKGRPASLAGAQFGGSGLEDRPSSGSWGSGDQSSSSFDPSRTFSEGTHFTESHSSLSSSTFLGPGLGGKSGERGAYASFGRDAGVGGLTQAGFLSGELALNSPGPLSPSGMKGTSQYYPSYSGSSRRRAADGSLDTQPKKVRKVPPGLPSSVYPPSSGEDYGRDATAYPSAKTPSSTYPAPFYVADGSLHPSAELWSPPGQAGFGPMLGGGSSPLPLPPGSGPVGSSGSSSTFGGLHQHERMGYQLHGAEVNGGLPSASSFSSAPGATYGGVSSHTPPVSGADSLLGSRGTTAGSSGDALGKALASIYSPDHSSNNFSSSPSTPVGSPQGLAGTSQWPRAGAPGALSPSYDGGLHGLQSKIEDHLDEAIHVLRSHAVGTAGDMHTLLPGHGALASGFTGPMSLGGRHAGLVGGSHPEDGLAGSTSLMHNHAALPSQPGTLPDLSRPPDSYSGLGRAGATAAASEIKREEKEDEENTSAADHSEEEKKELKAPRARTSSTDEVLSLEEKDLRDRERRMANNARERVRVRDINEAFRELGRMCQMHLKSDKAQTKLLILQQAVQVILGLEQQVRERNLNPKAACLKRREEEKVSGVVGDPQMVLSAPHPGLSEAHNPAGHM
